The record followed here is the odorant receptor screen of Mainland et al. (2015).

Values joined by “and” are separate entries in the source; they are usually repeats but may differ in a detail not shown here. Equal entries are not always repeated. The list shows a part of the results. Each value is one well over the wells without odorant, computed here; the data are noisy.

Among the test systems are OR2T5 clone 1495; OR2T5 clone 1496; OR2T8 clone 1576; OR2V1 clone 1718; OR2W1 D296N clone 1536; OR2W1 clone 1067; OR2W3 Indel clone 1491; OR2W5 clone 1506; OR2Y1 V200L clone 1069; OR2Z1 clone 1296; OR3A1 clone 1288; OR3A2 clone 1286; OR3A3 clone 1549; OR4A15 A257V clone 1216; OR4A16 clone 1518; OR4A4 clone 1134; OR4A5 clone 1637.
Holding throughout (assay): odorant receptor activation (CRE luciferase / Renilla) (fold of no-odor wells); higher = more activation
What all share (conditions): 100 µM

Test [1] deals with OR2T6 N21D/C23G/S243A clone 1432.
In test [2] the test system is OR3A4 I42V/S86R/E103Q/I120V/P168T/N175S clone 1550.
Test [3] concerns OR4A47 I104L/V145M clone 1579.

For `CCCCO` [1-butanol], the odorant receptor activation was determined as 1.19 with OR2T5 clone 1495; 1.15 in the test with OR2T5 clone 1496; 1.11 in [1]; 0.672 in the test on OR2T8 clone 1576; 1.08 with OR2V1 clone 1718; 1.26 in the test on OR2W1 D296N clone 1536. Also, the odorant receptor activation is 1.61 and 1.96 with OR2W1 clone 1067; 1.09 in the test with OR2W3 Indel clone 1491; 1.3 in the test with OR2W5 clone 1506; 2.7 with OR2Y1 V200L clone 1069; 0.634 in the test with OR2Z1 clone 1296; 0.828 in the test on OR3A1 clone 1288. The odorant receptor activation came to 0.578 in the test on OR3A2 clone 1286; 0.802 in the test on OR3A3 clone 1549; 0.872 in [2]; 1.13 in the test on OR4A15 A257V clone 1216; 1.09 in the test with OR4A16 clone 1518; 1.09 in the test with OR4A4 clone 1134. In addition, the results for the odorant receptor activation (in test [3]; with OR4A5 clone 1637) were 0.875 and 1.11, respectively.

Regarding `COc1cc(C=O)ccc1O` [vanillin], the odorant receptor activation in the test on OR2T5 clone 1495 worked out at 0.847; in the test with OR2T5 clone 1496, 1.45; in test [1], 0.849; in the test on OR2T8 clone 1576 it was 0.67; in the test on OR2V1 clone 1718, 0.795; with OR2W1 D296N clone 1536, 1.11. Also, the odorant receptor activation with OR2W1 clone 1067 was 1.91 and 1.01; with OR2W3 Indel clone 1491, 0.995; in the test with OR2W5 clone 1506, 0.839; in the test on OR2Y1 V200L clone 1069, 0.756; in the test on OR2Z1 clone 1296, 1.13; in the test with OR3A1 clone 1288 it was 0.963. The odorant receptor activation in the test with OR3A2 clone 1286 stood at 0.8; in the test on OR3A3 clone 1549, 1.08; in [2], 1.28; with OR4A15 A257V clone 1216, 0.915; in the test on OR4A16 clone 1518, 0.974; in the test with OR4A4 clone 1134, 1.37. The odorant receptor activation in test [3] is 0.434; in the test on OR4A5 clone 1637, 0.864.

`CC(C)CCC(=O)O` [4-methylvaleric acid]: the odorant receptor activation came out at 1.05 in the test on OR2T5 clone 1495; 0.966 with OR2T5 clone 1496; 1.29 in test [1]; 0.573 in the test on OR2T8 clone 1576; 0.921 in the test with OR2V1 clone 1718; 1.01 with OR2W1 D296N clone 1536. Besides, the odorant receptor activation in the test with OR2W1 clone 1067 is 1.35 and 1.15; in the test on OR2W3 Indel clone 1491, 1; in the test on OR2W5 clone 1506, 1.14; with OR2Y1 V200L clone 1069, 1.45; in the test on OR2Z1 clone 1296, 1.09; with OR3A1 clone 1288, 0.881. The odorant receptor activation with OR3A2 clone 1286 amounted to 0.897; with OR3A3 clone 1549, 0.715; in test [2], 0.669; in the test with OR4A15 A257V clone 1216, 0.996; in the test with OR4A16 clone 1518, 0.902; in the test with OR4A4 clone 1134 it was 1.33. For the same molecule, the values for the odorant receptor activation (in test [3]; with OR4A5 clone 1637) were 0.772 and 1.01, respectively.

As to `CCCCCCCCC=O` [nonyl aldehyde], the odorant receptor activation in the test on OR2T5 clone 1495 was 1.5; in the test with OR2T5 clone 1496 it was 1.43; in test [1], 1.14; in the test on OR2T8 clone 1576, 0.62; with OR2V1 clone 1718 it was 0.675; with OR2W1 D296N clone 1536, 1.95. The odorant receptor activation with OR2W1 clone 1067 is 1.3 and 2.01; in the test on OR2W3 Indel clone 1491, 1; in the test with OR2W5 clone 1506, 1.04; in the test with OR2Y1 V200L clone 1069, 1.22; in the test with OR2Z1 clone 1296, 0.632; in the test on OR3A1 clone 1288 it was 1.01. Besides, the odorant receptor activation with OR3A2 clone 1286 was determined as 1.34; in the test on OR3A3 clone 1549 it was 1.3; in [2] it was 1.22; in the test on OR4A15 A257V clone 1216, 0.999; in the test with OR4A16 clone 1518, 1.01; in the test on OR4A4 clone 1134, 1.01. For the same molecule, the figures for the odorant receptor activation (in [3]; with OR4A5 clone 1637) were 0.968 and 0.706, respectively.

As for `C=CCc1ccc(OC)c(OC)c1` [eugenol methyl ether], the odorant receptor activation was determined as 1.15 in the test on OR2T5 clone 1495; 1.26 in the test on OR2T5 clone 1496; 1.46 in test [1]; 0.646 in the test on OR2T8 clone 1576; 0.894 in the test with OR2V1 clone 1718; 1.43 in the test on OR2W1 D296N clone 1536. Further, the odorant receptor activation with OR2W1 clone 1067 was 1.05 and 1.58; in the test on OR2W3 Indel clone 1491, 1.35; with OR2W5 clone 1506 it was 0.99; with OR2Y1 V200L clone 1069, 1.48; with OR2Z1 clone 1296, 1.07; in the test on OR3A1 clone 1288 it was 1.52. Also, the odorant receptor activation was determined as 1.12 with OR3A2 clone 1286; 0.796 with OR3A3 clone 1549; 0.626 in test [2]; 1.54 in the test with OR4A15 A257V clone 1216; 1.32 in the test with OR4A16 clone 1518; 1.58 with OR4A4 clone 1134. Besides, the values for the odorant receptor activation (in [3]; in the test on OR4A5 clone 1637) were 0.764 and 1.01, respectively.

For the molecule `COc1cc(C)ccc1O` [2-methoxy-4-methylphenol], the odorant receptor activation in the test on OR2T5 clone 1495 turned out to be 0.79; with OR2T5 clone 1496 it was 0.861; in [1], 1.22; with OR2T8 clone 1576, 0.671; in the test on OR2V1 clone 1718, 0.908; in the test with OR2W1 D296N clone 1536 it was 0.968. For the same molecule, the odorant receptor activation in the test on OR2W1 clone 1067 was 1.38 and 1.55; with OR2W3 Indel clone 1491 it was 0.794; in the test with OR2W5 clone 1506, 1; in the test on OR2Y1 V200L clone 1069, 1.42; in the test on OR2Z1 clone 1296 it was 0.842; in the test on OR3A1 clone 1288, 0.666. In addition, the odorant receptor activation in the test with OR3A2 clone 1286 is 0.86; in the test on OR3A3 clone 1549 it was 0.755; in [2] it was 0.667; in the test on OR4A15 A257V clone 1216, 0.843; with OR4A16 clone 1518, 0.808; in the test on OR4A4 clone 1134, 1.7. In addition, the odorant receptor activation in [3] turned out to be 0.791; in the test on OR4A5 clone 1637 it was 1.22.

On to `O=C1CCCCCCCCCCCC(=O)OCCO1` [ethylene brassylate], for which the odorant receptor activation in the test on OR2T5 clone 1495 stood at 1.47; in the test on OR2T5 clone 1496, 1.27; in test [1] it was 1.85; with OR2T8 clone 1576, 1.02; in the test on OR2V1 clone 1718, 1.35; in the test on OR2W1 D296N clone 1536, 0.649. The odorant receptor activation was 0.408 and 0.772 with OR2W1 clone 1067; 1.08 with OR2W3 Indel clone 1491; 1.13 with OR2W5 clone 1506; 1.33 in the test on OR2Y1 V200L clone 1069; 1.1 in the test with OR2Z1 clone 1296; 1.3 in the test with OR3A1 clone 1288. Further, the odorant receptor activation in the test on OR3A2 clone 1286 came out at 1.1; in the test with OR3A3 clone 1549 it was 2.44; in test [2], 1.66; in the test with OR4A15 A257V clone 1216, 1.92; in the test with OR4A16 clone 1518 it was 1.19; in the test on OR4A4 clone 1134 it was 1.85. Further, the odorant receptor activation stood at 0.825 in [3] and 1.53 in the test with OR4A5 clone 1637.
